Results from publication PMC8316566.
No constants are given. Whether binding was seen depends on the method and setting. Some binding calls cover weakened binding; strength is not graded here.

The chains behind the UniProt entries cited, without tags or fusion partners. Residues count along the entry.
UniProt Q96CB9, residues 26-384: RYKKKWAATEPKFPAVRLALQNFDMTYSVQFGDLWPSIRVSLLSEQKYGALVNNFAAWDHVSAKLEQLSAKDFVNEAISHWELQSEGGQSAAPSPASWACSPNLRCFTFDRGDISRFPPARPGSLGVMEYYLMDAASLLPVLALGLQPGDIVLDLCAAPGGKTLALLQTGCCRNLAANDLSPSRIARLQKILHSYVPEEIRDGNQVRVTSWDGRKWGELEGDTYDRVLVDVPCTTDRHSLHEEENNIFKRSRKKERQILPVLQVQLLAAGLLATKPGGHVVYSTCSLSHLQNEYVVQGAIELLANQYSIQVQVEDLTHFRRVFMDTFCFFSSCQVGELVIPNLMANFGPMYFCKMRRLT

Key:
[1] = target: T1, mTERF4 (human (endogenous in HEK293)) (UniProt Q7Z6M4); assay: cryo-EM structure; native 39S pre-mitoribosomal particles isolated by anti-Flag affinity purification (MALSU1 or GTPBP10 bait; state 1 also with particles from a uL17 bait) from HEK293 cells; single-particle analysis, average resolutions between 3.1 Å and 5.7 Å; factors fitted as rigid-body homology models or crystal structures
T1 sequence: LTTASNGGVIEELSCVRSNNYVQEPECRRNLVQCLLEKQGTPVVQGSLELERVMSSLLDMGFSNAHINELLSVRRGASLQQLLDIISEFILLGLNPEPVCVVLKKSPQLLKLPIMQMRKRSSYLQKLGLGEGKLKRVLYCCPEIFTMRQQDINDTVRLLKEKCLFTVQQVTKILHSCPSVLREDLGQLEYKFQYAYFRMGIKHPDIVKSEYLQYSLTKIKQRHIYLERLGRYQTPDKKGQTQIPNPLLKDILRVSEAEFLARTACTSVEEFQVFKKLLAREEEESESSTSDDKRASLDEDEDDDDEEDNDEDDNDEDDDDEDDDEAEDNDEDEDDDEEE

[2] = target: T2, MRM3 (human (endogenous in HEK293)) (UniProt Q9HC36); assay: as above
T2 sequence: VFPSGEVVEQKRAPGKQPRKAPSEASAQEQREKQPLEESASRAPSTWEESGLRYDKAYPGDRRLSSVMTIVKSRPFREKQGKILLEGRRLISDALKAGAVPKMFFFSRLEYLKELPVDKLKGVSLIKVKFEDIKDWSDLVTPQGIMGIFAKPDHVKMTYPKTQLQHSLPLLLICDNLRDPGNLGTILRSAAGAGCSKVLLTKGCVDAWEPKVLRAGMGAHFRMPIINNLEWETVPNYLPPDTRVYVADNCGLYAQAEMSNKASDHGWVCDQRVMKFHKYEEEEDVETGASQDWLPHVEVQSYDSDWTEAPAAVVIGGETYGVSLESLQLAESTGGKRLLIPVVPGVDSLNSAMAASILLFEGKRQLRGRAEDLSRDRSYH

## NSUN4 (from UniProt Q96CB9 26-384)
[1]
  binding: binds

B1: DDX28 (protein, UniProt Q9NUL7 1-540)
chain: MALTRPVRLFSLVTRLLLAPRRGLTVRSPDEPLPVVRIPVALQRQLEQRQSRRRNLPRPVLVRPGPLLVSARRPELNQPARLTLGRWERAPLASQGWKSRRARRDHFSIERAQQEAPAVRKLSSKGSFADLGLEPRVLHALQEAAPEVVQPTTVQSSTIPSLLRGRHVVCAAETGSGKTLSYLLPLLQRLLGQPSLDSLPIPAPRGLVLVPSRELAQQVRAVAQPLGRSLGLLVRDLEGGHGMRRIRLQLSRQPSADVLVATPGALWKALKSRLISLEQLSFLVLDEADTLLDESFLELVDYILEKSHIAEGPADLEDPFNPKAQLVLVGATFPEGVGQLLNKVASPDAVTTITSSKLHCIMPHVKQTFLRLKGADKVAELVHILKHRDRAERTGPSGTVLVFCNSSSTVNWLGYILDDHKIQHLRLQGQMPALMRVGIFQSFQKSSRDILLCTDIASRGLDSTGVELVVNYDFPPTLQDYIHRAGRVGRVGSEVPGTVISFVTHPWDVSLVQKIELAARRRRSLPGLASSVKEPLPQAT
[2]
  binding: binds
